Results: article doi:10.1101/2020.06.15.145656
These are yes or no findings as the source states them, for the method shown. In cells and extracts the contact can be indirect. Some entries that bind do so weakly or less than the wild type. For part of these data: Where a sequence is shown, tags or fusion partners need not be part of it.

Chains of the proteins cited; added tags and fusions are not shown. Residues count along the entry.
UniProt P63165, residues 1-97: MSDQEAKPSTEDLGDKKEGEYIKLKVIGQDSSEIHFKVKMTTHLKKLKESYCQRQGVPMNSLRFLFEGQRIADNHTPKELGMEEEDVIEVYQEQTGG
UniProt O15047: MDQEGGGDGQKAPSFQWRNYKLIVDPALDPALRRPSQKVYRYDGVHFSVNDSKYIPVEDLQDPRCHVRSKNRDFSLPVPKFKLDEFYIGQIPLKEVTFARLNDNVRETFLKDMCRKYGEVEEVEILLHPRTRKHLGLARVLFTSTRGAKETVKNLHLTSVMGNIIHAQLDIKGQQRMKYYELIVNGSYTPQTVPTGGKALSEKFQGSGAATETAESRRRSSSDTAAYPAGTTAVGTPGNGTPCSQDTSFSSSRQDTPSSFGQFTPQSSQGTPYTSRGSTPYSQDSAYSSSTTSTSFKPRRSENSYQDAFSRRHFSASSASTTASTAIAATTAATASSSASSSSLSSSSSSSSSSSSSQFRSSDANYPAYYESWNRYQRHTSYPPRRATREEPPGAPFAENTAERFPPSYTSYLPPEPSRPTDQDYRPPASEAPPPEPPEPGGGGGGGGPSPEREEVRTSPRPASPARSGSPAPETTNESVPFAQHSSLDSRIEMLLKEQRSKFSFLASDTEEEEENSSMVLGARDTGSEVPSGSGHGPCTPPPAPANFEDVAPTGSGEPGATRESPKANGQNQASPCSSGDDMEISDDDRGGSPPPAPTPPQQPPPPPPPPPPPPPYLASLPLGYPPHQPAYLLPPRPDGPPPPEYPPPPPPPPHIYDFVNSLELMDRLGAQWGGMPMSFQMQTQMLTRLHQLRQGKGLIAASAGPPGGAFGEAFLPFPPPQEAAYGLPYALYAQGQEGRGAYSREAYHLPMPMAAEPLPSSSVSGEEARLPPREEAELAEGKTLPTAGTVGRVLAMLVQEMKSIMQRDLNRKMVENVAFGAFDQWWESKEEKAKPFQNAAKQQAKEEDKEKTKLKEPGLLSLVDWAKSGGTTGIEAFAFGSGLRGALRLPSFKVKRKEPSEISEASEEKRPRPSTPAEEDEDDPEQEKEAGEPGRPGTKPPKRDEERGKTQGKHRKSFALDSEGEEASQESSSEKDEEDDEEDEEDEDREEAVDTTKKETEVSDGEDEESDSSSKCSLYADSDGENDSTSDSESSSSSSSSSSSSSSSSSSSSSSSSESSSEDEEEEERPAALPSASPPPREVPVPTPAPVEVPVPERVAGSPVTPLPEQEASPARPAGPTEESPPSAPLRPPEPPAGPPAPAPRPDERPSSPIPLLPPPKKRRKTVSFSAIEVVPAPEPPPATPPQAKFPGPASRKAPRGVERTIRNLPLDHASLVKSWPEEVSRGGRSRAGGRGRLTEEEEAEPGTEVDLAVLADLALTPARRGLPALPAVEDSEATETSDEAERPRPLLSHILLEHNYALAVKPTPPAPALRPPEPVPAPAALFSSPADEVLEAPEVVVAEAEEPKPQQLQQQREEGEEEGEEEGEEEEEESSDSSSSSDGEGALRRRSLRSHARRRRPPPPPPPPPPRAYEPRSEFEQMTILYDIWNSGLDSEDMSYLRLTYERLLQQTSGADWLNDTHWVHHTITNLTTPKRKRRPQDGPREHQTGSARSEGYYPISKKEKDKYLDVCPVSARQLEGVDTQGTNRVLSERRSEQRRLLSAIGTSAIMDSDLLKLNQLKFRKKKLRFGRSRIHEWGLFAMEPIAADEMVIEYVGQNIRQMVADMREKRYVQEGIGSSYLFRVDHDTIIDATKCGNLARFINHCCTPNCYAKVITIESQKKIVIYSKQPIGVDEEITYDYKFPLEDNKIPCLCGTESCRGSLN
UniProt O75925: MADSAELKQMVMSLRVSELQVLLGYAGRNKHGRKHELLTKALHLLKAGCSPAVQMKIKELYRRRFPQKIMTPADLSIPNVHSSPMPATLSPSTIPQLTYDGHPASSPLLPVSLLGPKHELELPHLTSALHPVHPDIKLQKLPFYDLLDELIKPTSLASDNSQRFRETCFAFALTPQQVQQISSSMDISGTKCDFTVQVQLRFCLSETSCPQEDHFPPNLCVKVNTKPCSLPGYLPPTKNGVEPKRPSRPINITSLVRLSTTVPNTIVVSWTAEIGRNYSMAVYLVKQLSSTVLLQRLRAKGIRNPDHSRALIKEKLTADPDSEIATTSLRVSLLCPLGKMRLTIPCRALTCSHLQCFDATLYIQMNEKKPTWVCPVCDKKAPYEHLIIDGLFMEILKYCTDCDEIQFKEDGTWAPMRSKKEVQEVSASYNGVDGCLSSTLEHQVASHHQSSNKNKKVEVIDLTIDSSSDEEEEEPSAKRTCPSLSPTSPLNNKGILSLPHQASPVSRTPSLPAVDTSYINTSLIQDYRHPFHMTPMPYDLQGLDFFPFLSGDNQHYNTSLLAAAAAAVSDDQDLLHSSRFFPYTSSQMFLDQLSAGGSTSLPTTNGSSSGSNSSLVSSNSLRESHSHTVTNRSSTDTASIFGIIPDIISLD

Key:
HMGXB4-HA (human) = target: T1, HMGXB4-HA (human) (UniProt Q9UGU5); test: co-IP
T1 sequence: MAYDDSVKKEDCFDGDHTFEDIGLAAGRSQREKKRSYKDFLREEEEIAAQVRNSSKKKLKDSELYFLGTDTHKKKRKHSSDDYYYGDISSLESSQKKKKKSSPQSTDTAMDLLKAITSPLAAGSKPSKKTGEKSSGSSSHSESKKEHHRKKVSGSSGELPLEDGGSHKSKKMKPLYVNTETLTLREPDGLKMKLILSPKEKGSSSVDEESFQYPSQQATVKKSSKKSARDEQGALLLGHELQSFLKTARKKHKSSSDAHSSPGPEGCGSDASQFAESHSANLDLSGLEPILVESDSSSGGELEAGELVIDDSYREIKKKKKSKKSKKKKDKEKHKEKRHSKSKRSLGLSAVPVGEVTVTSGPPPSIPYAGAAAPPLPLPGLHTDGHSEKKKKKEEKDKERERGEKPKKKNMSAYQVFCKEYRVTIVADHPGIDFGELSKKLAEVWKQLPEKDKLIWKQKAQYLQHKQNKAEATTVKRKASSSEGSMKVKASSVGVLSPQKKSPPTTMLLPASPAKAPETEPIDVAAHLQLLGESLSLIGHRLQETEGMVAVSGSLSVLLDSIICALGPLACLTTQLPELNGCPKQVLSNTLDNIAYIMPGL

[1] = target: T2, endogenous HMGXB4 (human (endogenous in HEK293)) (UniProt Q9UGU5); test: co-IP
T2 sequence: T1 sequence

binding (HMGXB4-HA (human)) | binding [1] | Substance
binds | – | SUMO1 (co-IP in HeLa cells, data not shown) (from UniProt P63165 1-97)
– | binds | SETD1A (from UniProt O15047 1-1707) (enzyme)
binds | – | PIAS1-FLAG (from UniProt O75925 1-651)
